# No constants are given. Whether binding was seen depends on the method and setting. Binding can be weak; no strength is given.
# The chains behind the UniProt entries cited, without tags or fusion partners. Where a name states a change or a piece, a line headed by the entry shows the natural chain unless it says otherwise.
# UniProt P43254: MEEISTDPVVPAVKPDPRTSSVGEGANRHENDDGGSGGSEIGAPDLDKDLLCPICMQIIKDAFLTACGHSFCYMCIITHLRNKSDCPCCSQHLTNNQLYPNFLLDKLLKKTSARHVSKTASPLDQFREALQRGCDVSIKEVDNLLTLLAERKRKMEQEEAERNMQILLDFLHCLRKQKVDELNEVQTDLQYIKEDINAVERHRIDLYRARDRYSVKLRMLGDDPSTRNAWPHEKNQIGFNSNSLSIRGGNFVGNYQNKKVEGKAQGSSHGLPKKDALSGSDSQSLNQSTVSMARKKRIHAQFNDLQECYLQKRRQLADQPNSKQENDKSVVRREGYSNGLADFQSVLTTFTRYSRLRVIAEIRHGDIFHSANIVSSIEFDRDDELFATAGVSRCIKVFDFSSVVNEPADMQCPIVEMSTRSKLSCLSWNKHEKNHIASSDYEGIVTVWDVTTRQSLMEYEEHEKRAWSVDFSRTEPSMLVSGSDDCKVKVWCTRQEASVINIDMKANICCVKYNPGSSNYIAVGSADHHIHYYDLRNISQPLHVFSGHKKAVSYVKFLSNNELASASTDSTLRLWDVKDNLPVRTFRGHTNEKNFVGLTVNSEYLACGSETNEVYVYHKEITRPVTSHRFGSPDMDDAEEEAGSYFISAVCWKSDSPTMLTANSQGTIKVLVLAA
# B1: BBX21 (protein, UniProt Q9LQZ7 1-331)
# chain: MKIRCDVCDKEEASVFCTADEASLCGGCDHQVHHANKLASKHLRFSLLYPSSSNTSSPLCDICQDKKALLFCQQDRAILCKDCDSSIHAANEHTKKHDRFLLTGVKLSATSSVYKPTSKSSSSSSSNQDFSVPGSSISNPPPLKKPLSAPPQSNKIQPFSKINGGDASVNQWGSTSTISEYLMDTLPGWHVEDFLDSSLPTYGFSKSGDDDGVLPYMEPEDDNNTKRNNNNNNNNNNNTVSLPSKNLGIWVPQIPQTLPSSYPNQYFSQDNNIQFGMYNKETSPEVVSFAPIQNMKQQGQNNKRWYDDGGFTVPQITPPPLSSNKKFRSFW
# Target: C-terminal WD40-domain of COP1 (COP1^C340) (Arabidopsis thaliana) (UniProt P43254)
# Assay: two-hybrid
binder,measurement,value
B1,binding,binds

# — article doi:10.1101/2021.10.14.464399
